# Library screen at single concentrations

Amino acid sequences for entries named in this document (tags omitted). Residues count along the entry.
UniProt Q4DA54, 1-478: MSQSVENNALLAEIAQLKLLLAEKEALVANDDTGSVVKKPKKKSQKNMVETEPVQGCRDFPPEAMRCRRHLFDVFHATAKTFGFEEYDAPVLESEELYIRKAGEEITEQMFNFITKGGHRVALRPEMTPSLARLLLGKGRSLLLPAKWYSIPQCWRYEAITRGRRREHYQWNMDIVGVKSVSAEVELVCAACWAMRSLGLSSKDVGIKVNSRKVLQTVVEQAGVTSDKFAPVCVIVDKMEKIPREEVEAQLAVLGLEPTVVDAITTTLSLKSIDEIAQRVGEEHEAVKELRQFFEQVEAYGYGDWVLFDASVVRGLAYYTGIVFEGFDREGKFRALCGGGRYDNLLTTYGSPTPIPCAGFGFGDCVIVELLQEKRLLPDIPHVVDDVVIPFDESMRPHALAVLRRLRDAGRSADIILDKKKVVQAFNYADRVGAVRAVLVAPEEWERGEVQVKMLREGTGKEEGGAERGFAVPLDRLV
UniProt P9WPC5, whole entry: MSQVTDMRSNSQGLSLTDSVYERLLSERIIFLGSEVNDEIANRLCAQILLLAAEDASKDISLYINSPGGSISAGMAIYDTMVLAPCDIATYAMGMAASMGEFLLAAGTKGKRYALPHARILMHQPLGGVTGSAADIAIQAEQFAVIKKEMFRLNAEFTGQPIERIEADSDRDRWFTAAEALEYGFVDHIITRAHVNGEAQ
UniProt P9WPC3, whole entry partner: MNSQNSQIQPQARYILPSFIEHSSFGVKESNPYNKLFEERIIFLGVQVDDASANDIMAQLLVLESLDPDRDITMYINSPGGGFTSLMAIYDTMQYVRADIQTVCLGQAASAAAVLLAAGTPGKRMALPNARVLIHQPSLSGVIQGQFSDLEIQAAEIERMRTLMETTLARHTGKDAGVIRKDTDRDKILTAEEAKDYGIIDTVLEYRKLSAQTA
UniProt Q8IDJ8, 1-583: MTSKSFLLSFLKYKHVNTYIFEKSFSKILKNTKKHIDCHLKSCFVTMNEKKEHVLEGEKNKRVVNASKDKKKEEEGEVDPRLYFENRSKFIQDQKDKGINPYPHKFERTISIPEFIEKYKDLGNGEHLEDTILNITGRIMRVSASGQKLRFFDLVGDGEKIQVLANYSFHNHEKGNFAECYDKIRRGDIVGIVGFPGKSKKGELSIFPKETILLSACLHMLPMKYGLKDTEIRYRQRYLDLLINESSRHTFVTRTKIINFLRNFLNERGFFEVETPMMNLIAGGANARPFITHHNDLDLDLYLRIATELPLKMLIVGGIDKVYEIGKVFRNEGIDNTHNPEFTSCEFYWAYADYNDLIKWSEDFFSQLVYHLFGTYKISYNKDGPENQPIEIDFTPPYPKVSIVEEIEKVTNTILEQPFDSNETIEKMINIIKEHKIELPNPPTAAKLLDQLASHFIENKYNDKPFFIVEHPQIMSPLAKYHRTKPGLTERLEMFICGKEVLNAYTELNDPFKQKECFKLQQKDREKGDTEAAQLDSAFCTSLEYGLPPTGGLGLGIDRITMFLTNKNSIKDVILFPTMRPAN

The filed quantity is “Percent Effect” (%).
How 0% and 100% were set is not recorded. Most values in the screen are low, and negative values occur.
This is an unselected part of the compounds tested.
Two or more numbers in one place are separate tests of the same structure; such repeats can differ widely.

A: 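Cell assay of Leishmania donovani living inside macrophages; the read-out is not stated. Concentration: 30 µM. Higher reads as stronger inhibition (inferred: compounds with an IC50 in retests scored well above the rest). Of about 69,000 compounds tested this way, about 1,000 (1.5%) reached 50% or more in at least one test.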
B: 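Enzyme assay of histidyl-tRNA synthetase; the read-out is not stated. Target: Histidine-tRNA ligase, Trypanosoma cruzi CL Brener (UniProt Q4DA54). Tested at 30 µM. Direction is inferred from retests: higher values go with stronger inhibition. Size under these conditions: about 69,000 compounds, about 31 of them at 50% or above in at least one test.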
C: 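ClpP1P2, Mycobacterium tuberculosis (UniProt P9WPC5 and UniProt P9WPC3). Protease assay of ClpP1P2, read by the AMC dye that it sets free. Tested at 50 µM. Higher reads as stronger inhibition, judged from the few compounds that gave an IC50. Most other retested compounds had strongly negative values. About 69,000 compounds were tested under these conditions; 0.015% (about 10) showed 50% or more at least once.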
D: 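Assay of Toxoplasma gondii numbers, read through their beta-galactosidase reporter with a colour substrate. Concentration: 10 µM. The record gives no direction; the compounds picked for IC50 retests had high values, so higher reads as fewer parasites. Size under these conditions: about 67,000 compounds, about 260 of them at 50% or above in at least one test.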
E: 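Enzyme assay of the cytosolic lysyl-tRNA synthetase in 384-well plates, read by luminescence. Target: Lysine-tRNA ligase, Plasmodium falciparum 3D7 (UniProt Q8IDJ8). Tested at 30 µM. Higher reads as stronger inhibition, judged from the few compounds that gave an IC50. Of about 69,000 compounds tested this way, about 49 (0.071%) reached 50% or more in at least one test.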

compound: N#Cc1ccc(CN2CC3(CCCCN3c3cccnc3)CC2=O)cc1 (stereo unspecified)
B: 9.677
C: 2.242
E: 3.157

compound: Cn1cc(CN2CCC3(CCCN(Cc4ccccn4)C3)CC2)cn1
A: 51.96
B: -0.8264
C: -5.451
D: 11.88
E: 4.997

compound: CC1(C)CNC(=O)c2nc(C3CCCN(C(=O)C4CC4)C3)[nH]c2C1 (stereo unspecified)
A: 24.41
B: -18.83
C: -0.6845
D: -9.074
E: 9.642

compound: CNc1cc(C)nc(C2COCCN2CCOc2ccc(F)cc2)n1 (stereo unspecified)
A: 42.46
B: 9.848
C: 4.949
D: -18.01
E: -0.1992

compound: CN1C[C@H](O)C[C@H]1c1nc(-c2ccc(OC(F)(F)F)cc2)no1
A: 31.8
B: 0.9901
C: -3.414
D: 0.1802
E: 2.361

compound: O=C(CO)N1CCCC2(CCN(c3ccsc3)C2=O)C1 (stereo unspecified)
A: -7.375
B: -62.24
C: -2.68
D: -6.881
E: 1.283

compound: [H][C@@]12CCN(Cc3cccnc3OC)[C@]1([H])CC[C@H](c1nnc(C)o1)O2
A: -18.01
D: -6.203

compound: COCc1nn(C)c2c1CN(C(=O)c1ccno1)CC2
A: 18.55 & 16.43
B: 1.075
C: 1.747
D: 15.24
E: -4.053

compound: O=C(NCCNc1cnccn1)C1CCN(C(=O)N2CCCC2)CC1
A: -4.949
B: 1.88
C: 12.05
D: -3.881
E: 2.178

compound: Cl.O=C(CCN1CCCC1)Nc1c2c(cc3c1CCC3)CCC2
A: 9.231
D: 3.293

compound: CCc1ccc(CNC(=O)Cn2ccc3sccc3c2=O)cc1
A: -5.499
B: 0.9901
C: -12.76
D: 13.88
E: 0.7813

compound: O=C(c1ccc(F)c(F)c1)N1CCCC1CN1CCCC1 (stereo unspecified)
A: 1.773
B: 3.261
C: 12.61
D: 1.156
E: -2.078

compound: CC(=O)Nc1sc2c(c1C(=O)O)CCc1ccccc1-2
A: -24.12
B: 10
C: -7.144
D: 16.56
E: 7.721

compound: COc1ccc(C2(NC(=O)c3ccc(=O)n(C)n3)CCCC2)cc1
A: -0.7247
B: -6.736
C: -0.3145
D: -5.036
E: 0.1762

compound: CC(=O)N(Cc1ccc(NCc2cnn(C(C)(C)C)c2)cc1)C(C)C
A: 24.2
B: 5
C: -5.439
D: -0.0833
E: 1.47

compound: Cc1cc2n(n1)CC(CNC1CCN(C(=O)c3ccco3)CC1)CN2 (stereo unspecified)
A: 21.58
B: 4.651
C: -1.868
D: 1.565
E: 3.415

The last 2 entries again:

| compound | A | B | C | D | E |
|---|---|---|---|---|---|
| `CC(=O)N(Cc1ccc(NCc2cnn(C(C)(C)C)c2)cc1)C(C)C` | 24.2 | 5 | -5.439 | -0.0833 | 1.47 |
| `Cc1cc2n(n1)CC(CNC1CCN(C(=O)c3ccco3)CC1)CN2` (stereo unspecified) | 21.58 | 4.651 | -1.868 | 1.565 | 3.415 |

Measurements from “University of Dundee, Small-Polar-MMV Screening Library” (2021), ChEMBL document CHEMBL3988442.